PubChem BioAssay AID1053208 | Peter MacCallum Cancer Centre | 2014

- Test: 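Genes whose silencing cuts survival of bone tumour cells only with doxorubicin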 (primary screen)
- System: mouse osteosarcoma cells, early-passage culture from an engineered mouse model of fibroblastic bone tumour
- Reagents: siRNA pool against mouse genes, 40 nM
- Timing: about 120 h (48 h before drug, then 72 h with drug)
- Challenge: doxorubicin 100 nM for 72 h, roughly 30-40% inhibitory dose
- Measurement: 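Viability read as ATP luminescence after 72 h of 100 nM doxorubicin or none, duplicate wells averaged, scaled to non-targeting siRNA, then expressed as robust z-scores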
- Reading the numbers: viability z-score with doxorubicin and doxorubicin viability vs non-targeting: higher = more viable cells under doxorubicin; viability z-score without drug: higher = more viable cells with knock-down alone; z-score of drug to no-drug ratio: higher = less drug sensitisation by knock-down
- Active means: 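a pool counts as active when its viability z-score with doxorubicin is -2 or below and its z-score without drug lies between -2 and 2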
Shown is an unselected part of about 17,000 reagents. Of all reagents, 788 (4.7%) got an active call. 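Calls rest on z-score classes alone; an extra cut-off of viability at most 70% of control was not applied to them.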 A number with no mark means an inactive call. No sequences are given here.

| combined z-score class | viability z-score with doxorubicin | viability z-score without drug | z-score of drug to no-drug ratio | doxorubicin viability vs non-targeting | gene |
| --- | --- | --- | --- | --- | --- |
| no change with or without drug | -0.45 | -0.34 | -0.11 | 0.9 | St13 |
| no change with or without drug | 0.56 | -0.17 | 0.79 | 0.99 | Skap1 |
| low cell count with doxorubicin only (active) | -2.36 | 1.18 | -2.92 | 0.73 | Hoga1 |
| no change with or without drug | 1.12 | -0.84 | 2.02 | 1.04 | Wnk1 |
| no change with or without drug | -0.79 | 0.51 | -1.01 | 0.87 | Umod |
| no change with or without drug | -0.56 | -0.51 | -0.11 | 0.89 | Srsf6 |
| no change with or without drug | 1.01 | 1.35 | 0.22 | 1.03 | Zcchc8 |
| no change with or without drug | 0 | 0.34 | -0.11 | 0.94 | Tbxa2r |
| no change with or without drug | -0.22 | 1.18 | -0.9 | 0.92 | Ccdc60 |
| low cell count with and without drug | -2.7 | -3.54 | -0.34 | 0.7 | Fbl |
| high cell count without drug only | 1.12 | 2.36 | -0.34 | 1.04 | NALP6 |
| no change with or without drug | -0.9 | -0.84 | -0.22 | 0.86 | Or14a260 |
| no change with or without drug | 0.22 | 0.34 | 0.11 | 0.96 | Krabd3 |
| no change with or without drug | 0.34 | -0.51 | 0.79 | 0.97 | Rmdn1 |
| no change with or without drug | -1.35 | -0.51 | -1.01 | 0.82 | Epm2a |
| low cell count with doxorubicin only (active) | -2.36 | -0.17 | -2.25 | 0.73 | Fam161a |
| no change with or without drug | -0.9 | 0.84 | -1.35 | 0.86 | Aadacl2fm1 |
| no change with or without drug | 0.67 | 1.18 | 0 | 1 | Smc4 |
| no change with or without drug | 1.35 | 0 | 1.57 | 1.06 | Ezr |
| no change with or without drug | -0.45 | 0.34 | -0.56 | 0.9 | Polr3k |
| no change with or without drug | 1.35 | 0.67 | 1.01 | 1.06 | AI987944 |
| no change with or without drug | -0.67 | -0.84 | 0 | 0.88 | Stx5a |
| low cell count with doxorubicin only (active) | -4.16 | -0.84 | -3.93 | 0.57 | Snx12 |
| low cell count with doxorubicin only (active) | -2.7 | -1.52 | -1.91 | 0.7 | Or4c112 |
| no change with or without drug | -0.34 | -1.01 | 0.45 | 0.91 | Dtymk |
| no change with or without drug | -1.12 | -1.18 | -0.34 | 0.84 | H2-Q7 |
| no change with or without drug | -0.34 | -1.35 | 0.79 | 0.91 | P4hb |
| no change with or without drug | -1.01 | -1.01 | -0.22 | 0.85 | Atp6ap2 |
| no change with or without drug | -0.9 | 0.34 | -1.01 | 0.86 | Or10ak14 |
| no change with or without drug | -0.22 | 0.84 | -0.67 | 0.92 | Eps15l1 |
| no change with or without drug | 0.22 | -0.17 | 0.45 | 0.96 | Cbr3 |
| no change with or without drug | 0.9 | 0.51 | 0.67 | 1.02 | Megf11 |
| no change with or without drug | 0.22 | -1.01 | 1.12 | 0.96 | Ppp1cb |
| low cell count with and without drug | -3.15 | -2.87 | -1.46 | 0.66 | Mrpl48 |
| no change with or without drug | 1.46 | 0.67 | 1.12 | 1.07 | Creb3l4 |
| no change with or without drug | 0.45 | -0.34 | 0.79 | 0.98 | H13 |
| no change with or without drug | -0.67 | -0.51 | -0.22 | 0.88 | Cmklr2 |
| high cell count without drug only | 0.9 | 3.71 | -1.24 | 1.02 | Lap3 |
| no change with or without drug | 0 | 0.51 | -0.22 | 0.94 | Rbm7 |
| low cell count with and without drug | -7.31 | -8.77 | -3.48 | 0.29 | Psmb1 |
| no change with or without drug | 0.9 | -0.51 | 1.46 | 1.02 | Hrh2 |
| no change with or without drug | -0.22 | -1.52 | 1.01 | 0.92 | E4f1 |
| no change with or without drug | -0.45 | -0.84 | 0.22 | 0.9 | Morn4 |
| no change with or without drug | 1.35 | 0.34 | 1.24 | 1.06 | Hnrnpm |
| no change with or without drug | -0.67 | 0.84 | -1.12 | 0.88 | Krt86 |
| no change with or without drug | 0.9 | 0.84 | 0.45 | 1.02 | Cimap1a |
| no change with or without drug | -0.22 | -1.18 | 0.79 | 0.92 | Trap1 |
| low cell count with doxorubicin only (active) | -3.37 | 0 | -3.48 | 0.64 | Mib2 |
| no change with or without drug | 1.35 | 1.85 | 0.22 | 1.06 | Ggct |
| no change with or without drug | 0 | 0.17 | 0 | 0.94 | Dipk1c |

Only “combined z-score class”, for 3 of the entries above:
Or10ak14: no change with or without drug
Eps15l1: no change with or without drug
Cbr3: no change with or without drug
